{
  "source": "patent US20190022198A1",
  "about": "“Individualized Immunomodulation Therapy for Neurodegenerative Disorders, CNS Injury and Age-Related Dementia” (Yeda Research and Development Co. Ltd., priority 2012, published 2019)",
  "tested_on": "mSOD1 mice",
  "assay": "MOG immunization of mSOD1 mice: EAE symptoms, CP trafficking molecules, leukocytes in CSF and spinal cord, survival",
  "type": "in vivo, mouse",
  "settings": "mSOD1 mice immunized at the age of 60 days",
  "data": [
    {"substance": "MOG35-55 (MEVGWYRSPFSRVVHLYRNGK; emulsified in adjuvant) [emulsified in incomplete Freund's adjuvant containing 0.5 mg/ml M. tuberculosis]", "values": [
      {"measurement": "clinical symptoms of autoimmune encephalomyelitis", "value": "mild and transient clinical symptoms of autoimmune encephalomyelitis"}
    ]}
  ]
}
